# Assay results as given in publication PMC11321617 (Advanced Science, 2024).
# Test system: Escherichia coli O157:H7
# Assay: microbe, parasite or virus in culture
# Type: cell-based
# Details: 18 h
# Procedure: The MICs of the peptides were determined using the microplate broth dilution method.^[ [32] ^] The bacteria in the mid‐log phase were diluted to 5 × 10^5 colony forming units (CFU) mL^−1 in TSB. 100 µL of serially diluted peptide solution and 100 µL of diluted bacteria were put to a sterile 96‐well plate.
smiles,measurement,value
"CC1(C)S[C@@H]2[C@H](NC(=O)[C@H](N)c3ccccc3)C(=O)N2[C@H]1C(=O)O [ampicillin, Ampicillin]",MIC,12.5 µM
